Measured values reported in paper PMC9088798, “An Approach to Derive Functional Peptide Inhibitors of Transcription Factor Activity” (JACS Au, 2022).

By UniProt entry, the sequences of proteins in these tests, tags left out. Chains listed by the source or under a name are the forms on record and can include a tag or linker.
UniProt P05412, other isoform, or with tags, fused parts or gaps: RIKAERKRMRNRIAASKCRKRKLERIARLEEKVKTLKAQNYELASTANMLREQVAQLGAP

Columns and labels:
cJun bZIP (human) [1] = target: cJun bZIP (human) (UniProt P05412); test: EMSA, competition; details: 20 uM cJun, 2 uM DNA, free DNA band read-out, EMSA: 150 mM KCl, 1 mM DTT, 1 mM EDTA, 10 mM Tris, 10 mM MgCl2, pH 8, 4 C, 30 min, recombinant protein, protein details: C-terminal GAP, His-SUMO cleaved off
cJun bZIP (human) [2] = target: cJun bZIP (human) (UniProt P05412); test: CD (281 nm DNA peak), competition; details: EMSA: 150 mM KCl, 1 mM DTT, 1 mM EDTA, 10 mM Tris, 10 mM MgCl2, pH 8, 4 C, 30 min, recombinant protein, protein details: C-terminal GAP, His-SUMO cleaved off

Question: With “GTCAGTCAGTGACTCAATCGGTCA (double strand) [TRE DNA]” as the sequence, how does the IC50 (cJun bZIP (human) [1]; IC50 of A-FosW peptide) read?
Answer: 12.1 µM

Question: And the IC50 (cJun bZIP (human) [1]; IC50 of HingeW peptide)?
Answer: 9.6 µM

Question: What about the IC50 (cJun bZIP (human) [2]; IC50 of A-FosW peptide displacing cJun from TRE DNA) of the same sequence?
Answer: 16 µM

Question: And the IC50 (cJun bZIP (human) [2]; IC50 of FosW peptide displacing cJun from TRE DNA)?
Answer: 120 µM

Construct, isoform or probe ends are uncertain for at least one entry.
